Source: publication PMC10279693
These are yes or no findings as the source states them, for the method shown. In cells and extracts the contact can be indirect. Some results given as binding are weak or reduced against the parent protein; the word gives no strength.

By UniProt entry, the sequences of proteins in these tests, tags left out.
UniProt P04198: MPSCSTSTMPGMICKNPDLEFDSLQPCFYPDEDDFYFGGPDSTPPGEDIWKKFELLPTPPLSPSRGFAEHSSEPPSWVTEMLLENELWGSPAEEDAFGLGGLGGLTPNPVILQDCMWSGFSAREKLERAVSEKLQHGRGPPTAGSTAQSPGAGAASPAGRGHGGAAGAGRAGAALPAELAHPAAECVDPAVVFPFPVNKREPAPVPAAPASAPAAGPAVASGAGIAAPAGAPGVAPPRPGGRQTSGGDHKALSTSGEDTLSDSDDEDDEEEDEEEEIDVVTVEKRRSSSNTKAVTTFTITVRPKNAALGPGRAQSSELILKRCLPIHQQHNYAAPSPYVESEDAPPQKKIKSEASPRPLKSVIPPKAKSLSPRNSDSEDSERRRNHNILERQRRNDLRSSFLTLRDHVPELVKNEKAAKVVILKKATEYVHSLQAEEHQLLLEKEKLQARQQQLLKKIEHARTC
UniProt P61244: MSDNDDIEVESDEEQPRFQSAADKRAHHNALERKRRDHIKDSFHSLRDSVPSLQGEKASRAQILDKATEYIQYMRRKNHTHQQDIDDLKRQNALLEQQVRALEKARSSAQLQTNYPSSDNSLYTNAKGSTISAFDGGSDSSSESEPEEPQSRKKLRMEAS

Biological target: N-MYC (human (endogenous in CHP-134)) (UniProt P04198)
Experiment: co-IP; immunoprecipitation of endogenous N-MYC from CHP-134 cells; Western blot of co-immunoprecipitated material for WDR5 and MAX

binding: binds
Substance: MAX (from UniProt P61244 1-160)
